Patent publication EP0155871A1, “Compounds possessing inhibiting properties in the lignin formation in plants and process for the reduction of their lignin content” (Etablissement Public dit: CENTRE NATIONAL DE LA RECHERCHE …, priority 1984, dated 1985)
Some compounds share one wording; it may come from a single statement.

test system: plants de maïs; experiment: specificity of action: general metabolism markers in treated maize plants; format: in vivo; conditions: plants de maïs âgés de 30 jours

Structure (SMILES) | teneurs en chlorophilles
COc1cc(C=CC(=O)OC(C)(C)C)ccc1O [FTB, férulate de tertiobutyle] | n'apparaissent pas significativement affectées
CC(C)(C)OC(=O)C=Cc1ccc(O)cc1 [PCB, p-Coumarate de tertiobutyle] | n'apparaissent pas significativement affectées
COc1cc(C=CC(=O)OC(C)(C)C)cc(OC)c1O [STB, Sinapate de tertiobutyle] | n'apparaissent pas significativement affectées
